From publication PMC2965674, “Functional Roles of the N- and C-Terminal Regions of the Human Mitochondrial Single-Stranded DNA-Binding Protein” (PLoS ONE, 2010)

Target: T1, HsmtSSBwt (mature human mitochondrial SSB) (Homo sapiens) (UniProt Q04837)
T1 sequence (looked up, limits assumed): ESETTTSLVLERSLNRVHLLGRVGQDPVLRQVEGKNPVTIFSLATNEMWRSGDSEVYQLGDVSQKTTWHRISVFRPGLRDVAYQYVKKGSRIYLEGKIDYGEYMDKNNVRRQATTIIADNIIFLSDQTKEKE
Assay: EMSA
Conditions: no affinity difference, 20 mM Tris-HCl pH 7.5, 1 mM DTT, 4 mM MgCl2, 50 mM NaCl, 36 fmol 48-mer in 20 µL, 20°C 10 min, 6% native PAGE, recombinant protein, label: 5'-32P, single-stranded DNA

“GGACTATTTATTAAATATATTTAAGAACTAATTCCAGCTGAGCGCCGG [48-mer ssDNA oligonucleotide]”: binds (20 mM NaCl); binds (100 mM NaCl).

For at least one entry, the source does not settle the construct or the ends of the probe. At least one verdict rests on a figure or table, not on a statement of the authors. Protein sequences can lack the tags named with them.
